Measurements as given in publication doi:10.1101/2023.02.06.526840.

Target: Kif21b (endogenous, E18.5 mouse cortex) (mouse (endogenous in E18.5 cortex))
Assay: affinity purification with mass spectrometry

binding: binds
B1: Drebrin (Dbn1) (protein, UniProt Q9QXS6 1-706)
chain: MAGVSFSGHRLELLAAYEEVIREESAADWALYTYEDGSDDLKLAASGEGGLQELSGHFENQKVMYGFCSVKDSQAALPKYVLINWVGEDVPDARKCACASHVAKVAEFFQGVDVIVNASSVEDIDAGAIGQRLSNGLARLSSPVLHRLRLREDENAEPVGTTYQKTDAAVEMKRINREQFWEQAKKEEELRKEEERKKALDARLRFEQERMEQERQEQEERERRYREREQQIEEHRRKQQSLEAEEAKRRLKEQSIFGDQRDEEEESQMKKSESEVEEAAAIIAQRPDNPREFFRQQERVASASGGSCDAPAPAPFNHRPGRPYCPFIKASDSGPSSSSSSSSSPPRTPFPYITCHRTPNLSSSLPCSHLDSHRRMAPTPIPTRSPSDSSTASTPIAEQIERALDEVTSSQPPPPPPPPPPTQEAQETTPSLDEELSKEAKVTAAPEVWAGCAAEPPQAQEPPLLQSSPLEDSMCTESPEQAALAAPAEPAASVTSVADVHAADTIETTTATTDTTIANNVTPAAASLIDLWPGNGEEASTLQAEPRVPTPPSGAEASLAEVPLLNEAAQEPLPPVGEGCANLLNFDELPEPPATFCDPEEEVGETLAASQVLTMPSALEEVDQVLEQELEPEPHLLTNGETTQKEGTQASEGYFSQSQEEEFAQSEEPCAKVPPPVFYNKPPEIDITCWDADPVPEEEEGFEGGD

No constants are given. Whether binding was seen depends on the method and setting. Binding seen in cells or lysates may run through a third protein. A yes stands for co-enrichment or nearness to the bait. Other partners may have been found.
